Laboratory results reported in PMC5370183, “Kinetics of the LOV domain of ZEITLUPE determine its circadian function in Arabidopsis” (eLife, 2017).
These are yes or no findings as the source states them, for the method shown. Binding seen in cells or lysates may run through a third protein. Some entries that bind do so weakly or less than the wild type. For some assays here: Where a sequence is shown, tags or fusion partners need not be part of it.

The chains behind the UniProt entries cited, without tags or fusion partners.
UniProt Q9FHW7: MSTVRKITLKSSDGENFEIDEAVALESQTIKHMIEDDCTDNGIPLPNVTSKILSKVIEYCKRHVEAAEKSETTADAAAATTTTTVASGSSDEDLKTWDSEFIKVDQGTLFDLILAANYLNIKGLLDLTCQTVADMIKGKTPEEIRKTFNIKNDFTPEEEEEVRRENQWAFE
UniProt Q94BT6: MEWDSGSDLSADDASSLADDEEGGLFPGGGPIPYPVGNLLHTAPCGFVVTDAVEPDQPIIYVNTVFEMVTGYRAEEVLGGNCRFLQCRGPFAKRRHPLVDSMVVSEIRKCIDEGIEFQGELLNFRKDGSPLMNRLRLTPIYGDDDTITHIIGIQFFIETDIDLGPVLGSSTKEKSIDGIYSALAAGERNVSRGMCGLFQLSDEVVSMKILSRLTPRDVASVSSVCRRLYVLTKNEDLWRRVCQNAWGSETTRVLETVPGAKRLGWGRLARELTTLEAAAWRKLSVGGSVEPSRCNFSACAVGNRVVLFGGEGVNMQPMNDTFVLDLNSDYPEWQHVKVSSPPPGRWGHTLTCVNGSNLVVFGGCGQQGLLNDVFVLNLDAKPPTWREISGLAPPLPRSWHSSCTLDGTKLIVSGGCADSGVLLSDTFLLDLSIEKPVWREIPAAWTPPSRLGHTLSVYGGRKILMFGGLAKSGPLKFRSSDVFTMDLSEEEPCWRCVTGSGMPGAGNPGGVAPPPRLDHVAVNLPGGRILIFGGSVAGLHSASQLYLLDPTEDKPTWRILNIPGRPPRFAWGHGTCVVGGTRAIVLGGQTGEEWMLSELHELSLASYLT

Experiments:
[1] = target: ARABIDOPSIS SKP1-LIKE 2 (ASK2) (Arabidopsis thaliana) (UniProt Q9FHW7); assay: co-IP; transient co-expression in N. benthamiana, light or darkness; precipitated with anti-FLAG, ZTL variants detected with anti-HA antibody
[2] = target: T1, GI-GFP (GIGANTEA) (Arabidopsis thaliana) (UniProt Q9SQI2); assay: co-IP; transient co-expression in N. benthamiana, continuous light or dark for 24 hr; GI-GFP precipitated with GFP antibody, ZTL variants detected with HA antibody
T1 sequence: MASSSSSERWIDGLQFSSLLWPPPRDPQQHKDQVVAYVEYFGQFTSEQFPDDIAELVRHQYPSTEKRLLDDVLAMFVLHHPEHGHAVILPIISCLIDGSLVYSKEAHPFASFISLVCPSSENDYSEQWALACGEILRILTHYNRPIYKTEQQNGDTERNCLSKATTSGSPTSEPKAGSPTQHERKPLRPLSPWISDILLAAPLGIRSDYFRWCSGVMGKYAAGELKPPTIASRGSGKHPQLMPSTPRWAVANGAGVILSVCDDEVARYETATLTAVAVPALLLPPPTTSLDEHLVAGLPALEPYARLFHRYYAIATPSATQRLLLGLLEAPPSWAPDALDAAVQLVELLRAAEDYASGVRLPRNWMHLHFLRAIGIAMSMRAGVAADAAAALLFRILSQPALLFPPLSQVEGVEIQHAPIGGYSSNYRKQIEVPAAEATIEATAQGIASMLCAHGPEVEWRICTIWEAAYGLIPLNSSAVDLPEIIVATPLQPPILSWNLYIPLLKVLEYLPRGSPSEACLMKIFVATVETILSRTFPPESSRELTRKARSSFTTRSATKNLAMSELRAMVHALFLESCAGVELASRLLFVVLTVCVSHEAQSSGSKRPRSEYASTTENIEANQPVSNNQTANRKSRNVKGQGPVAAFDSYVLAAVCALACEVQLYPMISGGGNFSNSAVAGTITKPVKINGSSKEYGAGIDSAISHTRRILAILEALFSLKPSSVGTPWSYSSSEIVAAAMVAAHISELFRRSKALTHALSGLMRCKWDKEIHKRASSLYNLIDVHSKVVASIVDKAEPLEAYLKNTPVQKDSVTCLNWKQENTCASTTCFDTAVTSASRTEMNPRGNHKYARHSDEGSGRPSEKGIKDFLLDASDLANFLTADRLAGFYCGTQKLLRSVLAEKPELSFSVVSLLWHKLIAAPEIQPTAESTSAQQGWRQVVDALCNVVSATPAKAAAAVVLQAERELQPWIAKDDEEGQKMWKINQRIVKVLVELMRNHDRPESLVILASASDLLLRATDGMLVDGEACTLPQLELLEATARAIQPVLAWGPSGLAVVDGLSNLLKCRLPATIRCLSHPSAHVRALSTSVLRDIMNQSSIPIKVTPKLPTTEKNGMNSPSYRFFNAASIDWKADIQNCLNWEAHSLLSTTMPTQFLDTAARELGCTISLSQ

binding [1]: binds
binding [2]: binds
Substance: HA-ZTL (ZEITLUPE, wild type) (from UniProt Q94BT6 1-609)
